Values from PubChem BioAssay AID1224830 (NIAID, 2016).
The whole screen tested about 18,000 reagents; below is a random part of them. About 2,900 of all reagents (16%) count as active. 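Calls are made per well; low scores hint the gene aids the LPS response, high scores that it dampens it.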 Repeated entries: four replicate wells of each siRNA pool. No sequences are given here.

- Purpose: 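Regulators of TLR4 signalling towards TNF-alpha in macrophage-like cells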 (primary screen)
- Cells: human THP-1 monocytic leukaemia cells, TNF dual-luciferase reporter clone, PMA-differentiated to macrophage-like cells
- Knock-down reagent: siRNA pool against human genes, 50 nM
- Timing: LPS for 4 h, given about 3 days after siRNA transfection
- Treatment: bacterial LPS (TLR4 ligand), 10 ng/ml
- Detection: 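Ratio of firefly to renilla light, scaled to the plate median and expressed as a robust z-score per replicate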
- Scale: TNF reporter robust z-score: higher = stronger TNF reporter response to LPS
- Rule for the call: 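Each well counts as active if its z-score is over 2.8 or under -1.5; controls are left without a call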

MOAP1 (modulator of apoptosis 1)
- call: inactive

MOAP1 (modulator of apoptosis 1)
- TNF reporter robust z-score: -0.77
- call: inactive

MOAP1 (modulator of apoptosis 1)
- TNF reporter robust z-score: -0.54
- call: inactive

MOAP1 (modulator of apoptosis 1)
- TNF reporter robust z-score: -1.07
- call: inactive

MOAP1 (modulator of apoptosis 1)
- TNF reporter robust z-score: -0.72
- call: inactive

PPP6R2 (protein phosphatase 6 regulatory subunit 2)
- TNF reporter robust z-score: -0.45
- call: inactive

PPP6R2 (protein phosphatase 6 regulatory subunit 2)
- TNF reporter robust z-score: -0.34
- call: inactive

PPP6R2 (protein phosphatase 6 regulatory subunit 2)
- TNF reporter robust z-score: 0.8
- call: inactive

PPP6R2 (protein phosphatase 6 regulatory subunit 2)
- TNF reporter robust z-score: 0.35
- call: inactive

COX16 (cytochrome c oxidase assembly factor COX16)
- TNF reporter robust z-score: 0.37
- call: inactive

COX16 (cytochrome c oxidase assembly factor COX16)
- TNF reporter robust z-score: 0.28
- call: inactive

COX16 (cytochrome c oxidase assembly factor COX16)
- TNF reporter robust z-score: 0.09
- call: inactive

COX16 (cytochrome c oxidase assembly factor COX16)
- TNF reporter robust z-score: 0.19
- call: inactive

GALNT5 (polypeptide N-acetylgalactosaminyltransferase 5)
- TNF reporter robust z-score: -0.18
- call: inactive

GALNT5 (polypeptide N-acetylgalactosaminyltransferase 5)
- TNF reporter robust z-score: 0.52
- call: inactive

GALNT5 (polypeptide N-acetylgalactosaminyltransferase 5)
- TNF reporter robust z-score: 0.8
- call: inactive

GALNT5 (polypeptide N-acetylgalactosaminyltransferase 5)
- TNF reporter robust z-score: 1.69
- call: inactive

SMO (smoothened, frizzled class receptor)
- TNF reporter robust z-score: -0.23
- call: inactive

SMO (smoothened, frizzled class receptor)
- TNF reporter robust z-score: -0.26
- call: inactive

SMO (smoothened, frizzled class receptor)
- TNF reporter robust z-score: -0.33
- call: inactive

SMO (smoothened, frizzled class receptor)
- TNF reporter robust z-score: -1.01
- call: inactive

Laid out differently: 3 of the entries above
{"gene knocked down": "PPP6R2 (protein phosphatase 6 regulatory subunit 2)", "TNF reporter robust z-score": 0.35, "call": "inactive"}
{"gene knocked down": "COX16 (cytochrome c oxidase assembly factor COX16)", "TNF reporter robust z-score": 0.37, "call": "inactive"}
{"gene knocked down": "COX16 (cytochrome c oxidase assembly factor COX16)", "TNF reporter robust z-score": 0.28, "call": "inactive"}

Additional results follow:
LRRCC1 (leucine rich repeat and coiled-coil centrosomal protein 1)
- TNF reporter robust z-score: 0.82
- call: inactive

LRRCC1 (leucine rich repeat and coiled-coil centrosomal protein 1)
- TNF reporter robust z-score: 0.8
- call: inactive

LRRCC1 (leucine rich repeat and coiled-coil centrosomal protein 1)
- TNF reporter robust z-score: -0.47
- call: inactive

LRRCC1 (leucine rich repeat and coiled-coil centrosomal protein 1)
- TNF reporter robust z-score: 1.8
- call: inactive

IQCF1 (IQ motif containing F1)
- TNF reporter robust z-score: -1.65
- call: active

IQCF1 (IQ motif containing F1)
- TNF reporter robust z-score: -1.12
- call: inactive

IQCF1 (IQ motif containing F1)
- TNF reporter robust z-score: -1.47
- call: inactive

IQCF1 (IQ motif containing F1)
- TNF reporter robust z-score: -1.28
- call: inactive

PGBD3 (piggyBac transposable element derived 3)
- TNF reporter robust z-score: 3.61
- call: active

PGBD3 (piggyBac transposable element derived 3)
- TNF reporter robust z-score: 1.19
- call: inactive

PGBD3 (piggyBac transposable element derived 3)
- TNF reporter robust z-score: -0.32
- call: inactive

PGBD3 (piggyBac transposable element derived 3)
- TNF reporter robust z-score: 0.57
- call: inactive
